The other results are listed elsewhere or left out.
How the values were obtained:
Assay in all cases: log2 fold change, soluble protein after heating vs DMSO (PISA); higher = thermal stabilisation; K562 cells, 10 uM, 30 min; active = over 0.2 and 3.5 SD of the protein, either way, in both replicates (recomputed)
[1] = compound: CS(=O)(=O)c1ccc(-c2cnc(N)c(C(=O)Nc3ccccc3)n2)cc1
Procedure, shortened: (§1)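 For each measurement, 10 μM compound was applied for 30 min to K562 cells at 2×10^6 cells/mL. Aliquots were heated for 3 min across 48°C-58°C, pooled, and extracted in PBS with 0.5% NP-40 at 4°C; the supernatant after 21,000xg for 90 min was soluble protein. This was quantified by TMTpro 16plex LC-MS/MS with channel sums equalised, and thermal stability was reported relative to control samples from duplicates, on a log2 fold-change scale.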

By UniProt entry, the sequences of proteins in these tests, tags left out. Where a name states a change or a piece, a line headed by the entry shows the natural chain unless it says otherwise.
UniProt Q9UMR2: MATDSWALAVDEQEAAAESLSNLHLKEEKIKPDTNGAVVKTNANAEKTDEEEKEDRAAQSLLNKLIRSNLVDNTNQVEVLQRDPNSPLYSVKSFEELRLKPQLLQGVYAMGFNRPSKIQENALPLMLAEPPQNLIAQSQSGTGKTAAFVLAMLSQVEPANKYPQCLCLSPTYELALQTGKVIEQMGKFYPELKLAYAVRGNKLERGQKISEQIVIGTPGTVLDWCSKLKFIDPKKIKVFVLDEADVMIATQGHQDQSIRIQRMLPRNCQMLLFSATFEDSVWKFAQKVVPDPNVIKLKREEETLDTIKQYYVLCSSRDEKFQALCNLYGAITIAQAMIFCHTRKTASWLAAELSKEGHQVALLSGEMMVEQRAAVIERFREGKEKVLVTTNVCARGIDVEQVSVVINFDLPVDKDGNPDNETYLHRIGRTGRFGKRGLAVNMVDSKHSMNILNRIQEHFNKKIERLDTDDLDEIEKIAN
UniProt O60884: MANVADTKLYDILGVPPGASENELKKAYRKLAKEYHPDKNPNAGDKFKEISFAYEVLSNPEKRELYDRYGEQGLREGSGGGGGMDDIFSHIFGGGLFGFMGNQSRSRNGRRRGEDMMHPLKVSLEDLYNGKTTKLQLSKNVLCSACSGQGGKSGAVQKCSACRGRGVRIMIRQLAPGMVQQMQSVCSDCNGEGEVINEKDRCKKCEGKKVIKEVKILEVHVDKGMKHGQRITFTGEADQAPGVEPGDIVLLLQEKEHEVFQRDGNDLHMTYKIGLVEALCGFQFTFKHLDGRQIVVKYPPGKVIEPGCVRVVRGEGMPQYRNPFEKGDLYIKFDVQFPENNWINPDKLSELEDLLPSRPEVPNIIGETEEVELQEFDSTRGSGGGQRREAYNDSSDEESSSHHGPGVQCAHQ
UniProt P17661, whole entry, looked up: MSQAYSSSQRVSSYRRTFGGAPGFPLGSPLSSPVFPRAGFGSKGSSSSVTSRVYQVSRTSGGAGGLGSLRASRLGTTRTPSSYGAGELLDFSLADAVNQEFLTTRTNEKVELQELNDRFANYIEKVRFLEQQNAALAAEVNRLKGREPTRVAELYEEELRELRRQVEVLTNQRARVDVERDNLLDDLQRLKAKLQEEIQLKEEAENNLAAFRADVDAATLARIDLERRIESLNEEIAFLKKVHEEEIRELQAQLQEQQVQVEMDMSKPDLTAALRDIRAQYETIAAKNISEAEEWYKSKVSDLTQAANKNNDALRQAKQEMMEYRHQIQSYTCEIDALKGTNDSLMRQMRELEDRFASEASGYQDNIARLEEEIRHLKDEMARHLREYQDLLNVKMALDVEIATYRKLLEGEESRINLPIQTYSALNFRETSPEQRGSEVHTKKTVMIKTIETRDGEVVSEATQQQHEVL
UniProt Q6P158: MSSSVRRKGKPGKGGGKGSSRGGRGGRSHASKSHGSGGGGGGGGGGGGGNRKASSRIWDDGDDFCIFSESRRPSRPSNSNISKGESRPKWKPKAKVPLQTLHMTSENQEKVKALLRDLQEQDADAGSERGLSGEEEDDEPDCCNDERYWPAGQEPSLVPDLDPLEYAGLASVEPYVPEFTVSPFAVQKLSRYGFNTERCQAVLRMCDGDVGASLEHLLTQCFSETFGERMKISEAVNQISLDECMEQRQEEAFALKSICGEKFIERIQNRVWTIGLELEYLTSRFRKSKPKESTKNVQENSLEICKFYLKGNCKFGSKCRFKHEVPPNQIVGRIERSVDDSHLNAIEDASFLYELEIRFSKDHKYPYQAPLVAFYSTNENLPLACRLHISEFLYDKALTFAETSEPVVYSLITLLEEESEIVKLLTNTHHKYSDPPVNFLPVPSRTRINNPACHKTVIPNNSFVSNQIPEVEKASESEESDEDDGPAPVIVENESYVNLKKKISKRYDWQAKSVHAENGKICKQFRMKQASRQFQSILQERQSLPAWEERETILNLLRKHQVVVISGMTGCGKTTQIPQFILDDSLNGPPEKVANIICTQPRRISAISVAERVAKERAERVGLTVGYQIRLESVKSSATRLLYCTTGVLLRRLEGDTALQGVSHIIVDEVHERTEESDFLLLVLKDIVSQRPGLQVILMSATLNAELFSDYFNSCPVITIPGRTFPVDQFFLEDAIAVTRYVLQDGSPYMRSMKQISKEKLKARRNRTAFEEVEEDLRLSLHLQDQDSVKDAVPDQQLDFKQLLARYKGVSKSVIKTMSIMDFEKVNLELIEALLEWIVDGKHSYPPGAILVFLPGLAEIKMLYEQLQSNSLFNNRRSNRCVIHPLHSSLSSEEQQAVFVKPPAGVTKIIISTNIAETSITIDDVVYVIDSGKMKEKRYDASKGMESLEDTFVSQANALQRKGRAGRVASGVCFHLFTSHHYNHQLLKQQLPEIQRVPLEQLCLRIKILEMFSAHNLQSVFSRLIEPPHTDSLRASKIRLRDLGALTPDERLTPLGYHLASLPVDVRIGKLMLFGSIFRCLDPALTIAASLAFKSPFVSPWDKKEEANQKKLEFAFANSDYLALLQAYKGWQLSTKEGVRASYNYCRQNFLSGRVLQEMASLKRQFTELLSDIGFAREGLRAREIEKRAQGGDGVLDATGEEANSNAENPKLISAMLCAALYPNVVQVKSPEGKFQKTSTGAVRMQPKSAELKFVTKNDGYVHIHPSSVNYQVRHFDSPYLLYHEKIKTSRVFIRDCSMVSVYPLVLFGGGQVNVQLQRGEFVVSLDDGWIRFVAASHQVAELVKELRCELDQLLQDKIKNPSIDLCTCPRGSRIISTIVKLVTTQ
UniProt Q6UWP2: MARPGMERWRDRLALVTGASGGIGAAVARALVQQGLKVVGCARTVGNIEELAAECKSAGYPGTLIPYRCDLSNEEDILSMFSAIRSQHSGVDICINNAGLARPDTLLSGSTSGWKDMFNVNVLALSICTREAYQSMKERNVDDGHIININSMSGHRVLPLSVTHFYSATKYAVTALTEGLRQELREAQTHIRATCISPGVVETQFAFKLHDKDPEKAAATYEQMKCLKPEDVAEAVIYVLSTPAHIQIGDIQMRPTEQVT
UniProt O75907: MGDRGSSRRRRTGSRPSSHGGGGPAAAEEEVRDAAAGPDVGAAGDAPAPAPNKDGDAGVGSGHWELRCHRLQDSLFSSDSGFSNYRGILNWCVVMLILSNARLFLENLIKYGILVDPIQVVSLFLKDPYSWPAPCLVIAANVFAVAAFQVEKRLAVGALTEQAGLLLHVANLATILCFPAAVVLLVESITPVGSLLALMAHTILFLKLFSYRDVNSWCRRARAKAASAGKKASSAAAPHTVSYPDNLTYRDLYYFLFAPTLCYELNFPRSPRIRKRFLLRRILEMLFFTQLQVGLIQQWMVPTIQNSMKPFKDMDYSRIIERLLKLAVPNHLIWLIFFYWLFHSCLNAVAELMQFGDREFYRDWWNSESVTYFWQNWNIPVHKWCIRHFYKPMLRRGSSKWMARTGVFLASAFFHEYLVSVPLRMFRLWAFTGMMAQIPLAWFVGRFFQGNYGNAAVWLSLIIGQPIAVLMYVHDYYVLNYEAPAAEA
UniProt Q9UNQ2: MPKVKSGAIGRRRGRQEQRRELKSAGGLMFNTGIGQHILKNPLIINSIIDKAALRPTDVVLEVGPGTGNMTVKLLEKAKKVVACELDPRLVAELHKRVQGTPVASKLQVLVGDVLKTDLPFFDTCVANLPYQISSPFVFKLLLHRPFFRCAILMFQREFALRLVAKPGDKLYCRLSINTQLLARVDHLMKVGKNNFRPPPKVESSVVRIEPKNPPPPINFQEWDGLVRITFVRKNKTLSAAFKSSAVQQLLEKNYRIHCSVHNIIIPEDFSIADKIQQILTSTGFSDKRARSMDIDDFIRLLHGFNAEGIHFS
UniProt Q7Z4W1: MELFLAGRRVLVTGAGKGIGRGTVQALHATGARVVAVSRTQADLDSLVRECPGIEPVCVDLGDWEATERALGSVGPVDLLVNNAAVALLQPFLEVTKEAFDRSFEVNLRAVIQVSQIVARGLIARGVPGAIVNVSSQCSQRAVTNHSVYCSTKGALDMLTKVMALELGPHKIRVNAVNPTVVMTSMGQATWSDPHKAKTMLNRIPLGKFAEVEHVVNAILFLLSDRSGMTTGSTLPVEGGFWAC
UniProt Q9NR28: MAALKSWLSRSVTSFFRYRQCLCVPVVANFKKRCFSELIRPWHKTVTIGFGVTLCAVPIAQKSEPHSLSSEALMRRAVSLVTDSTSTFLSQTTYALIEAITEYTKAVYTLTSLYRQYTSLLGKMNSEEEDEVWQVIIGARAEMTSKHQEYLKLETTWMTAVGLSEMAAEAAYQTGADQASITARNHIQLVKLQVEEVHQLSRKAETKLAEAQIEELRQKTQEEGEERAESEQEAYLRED
UniProt Q8TF46, whole entry, looked up: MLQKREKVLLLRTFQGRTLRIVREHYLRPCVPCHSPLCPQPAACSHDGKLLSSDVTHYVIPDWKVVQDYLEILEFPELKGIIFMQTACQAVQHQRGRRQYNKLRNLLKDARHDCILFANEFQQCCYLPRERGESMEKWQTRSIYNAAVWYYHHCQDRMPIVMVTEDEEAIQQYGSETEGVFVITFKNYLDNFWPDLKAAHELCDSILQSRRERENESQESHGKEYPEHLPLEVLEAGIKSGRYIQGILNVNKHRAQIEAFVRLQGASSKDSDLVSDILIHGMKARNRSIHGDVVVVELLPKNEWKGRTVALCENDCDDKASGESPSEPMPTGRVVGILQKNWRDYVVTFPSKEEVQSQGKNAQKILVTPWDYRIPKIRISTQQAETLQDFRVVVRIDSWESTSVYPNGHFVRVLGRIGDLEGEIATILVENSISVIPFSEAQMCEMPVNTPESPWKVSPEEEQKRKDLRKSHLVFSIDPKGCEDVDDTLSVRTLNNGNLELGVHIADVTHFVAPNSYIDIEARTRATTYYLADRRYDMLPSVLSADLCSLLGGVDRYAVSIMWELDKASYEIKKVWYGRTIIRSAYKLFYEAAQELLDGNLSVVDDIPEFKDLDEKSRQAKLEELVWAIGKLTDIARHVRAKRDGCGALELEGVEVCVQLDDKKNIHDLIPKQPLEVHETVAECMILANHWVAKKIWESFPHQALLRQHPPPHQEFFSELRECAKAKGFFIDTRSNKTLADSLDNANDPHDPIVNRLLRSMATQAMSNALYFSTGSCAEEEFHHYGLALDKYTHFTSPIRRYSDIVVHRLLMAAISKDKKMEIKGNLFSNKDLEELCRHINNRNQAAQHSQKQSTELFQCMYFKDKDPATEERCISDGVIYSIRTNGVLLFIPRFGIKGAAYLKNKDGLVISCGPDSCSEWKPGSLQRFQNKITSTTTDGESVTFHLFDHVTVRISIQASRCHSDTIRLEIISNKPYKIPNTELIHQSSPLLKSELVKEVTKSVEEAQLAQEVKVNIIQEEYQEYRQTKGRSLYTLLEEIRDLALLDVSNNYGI
UniProt Q9H0S4: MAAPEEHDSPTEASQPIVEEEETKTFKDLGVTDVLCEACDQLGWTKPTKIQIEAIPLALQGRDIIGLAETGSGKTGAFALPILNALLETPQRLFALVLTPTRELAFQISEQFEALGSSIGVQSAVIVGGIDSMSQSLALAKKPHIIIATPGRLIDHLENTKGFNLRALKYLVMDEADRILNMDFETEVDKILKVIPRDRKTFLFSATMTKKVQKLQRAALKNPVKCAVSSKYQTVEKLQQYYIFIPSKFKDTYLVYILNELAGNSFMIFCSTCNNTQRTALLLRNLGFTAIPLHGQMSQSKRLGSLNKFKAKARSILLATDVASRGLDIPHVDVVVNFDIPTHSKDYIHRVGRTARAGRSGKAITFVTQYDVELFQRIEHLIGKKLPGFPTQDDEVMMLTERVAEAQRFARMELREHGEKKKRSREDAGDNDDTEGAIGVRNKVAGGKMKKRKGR
UniProt Q8WYQ5: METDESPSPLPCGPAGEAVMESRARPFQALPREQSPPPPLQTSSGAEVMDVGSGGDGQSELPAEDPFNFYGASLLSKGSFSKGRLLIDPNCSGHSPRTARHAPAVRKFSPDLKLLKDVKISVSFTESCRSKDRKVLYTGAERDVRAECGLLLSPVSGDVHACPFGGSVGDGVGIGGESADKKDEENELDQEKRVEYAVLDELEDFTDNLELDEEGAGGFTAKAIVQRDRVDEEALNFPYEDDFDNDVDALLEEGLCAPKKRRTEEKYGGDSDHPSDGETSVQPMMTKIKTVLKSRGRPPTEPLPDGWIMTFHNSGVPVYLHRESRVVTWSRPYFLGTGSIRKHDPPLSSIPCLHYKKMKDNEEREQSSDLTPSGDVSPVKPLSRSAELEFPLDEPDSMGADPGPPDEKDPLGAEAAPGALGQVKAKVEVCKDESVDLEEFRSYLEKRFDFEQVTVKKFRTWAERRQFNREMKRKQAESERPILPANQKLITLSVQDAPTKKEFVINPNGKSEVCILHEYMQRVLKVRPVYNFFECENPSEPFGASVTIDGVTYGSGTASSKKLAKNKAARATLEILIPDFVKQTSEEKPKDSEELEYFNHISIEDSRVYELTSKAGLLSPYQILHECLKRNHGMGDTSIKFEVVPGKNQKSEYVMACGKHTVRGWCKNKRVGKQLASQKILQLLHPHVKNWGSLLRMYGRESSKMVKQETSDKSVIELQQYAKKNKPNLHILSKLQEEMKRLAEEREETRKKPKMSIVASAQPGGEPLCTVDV

[2] = compound: C[C@@H](Oc1cc(-c2cnn(C3CCNCC3)c2)cnc1N)c1c(Cl)ccc(F)c1Cl [crizotinib]
Procedure, shortened: as §1

[3] = compound: C[C@@H]1COCCN1C2=NC(=NC(=C2)C3(CC3)S(=O)(=O)C)C4=C5C=CNC5=CC=C4
Procedure, shortened: as §1

[4] = compound: C[C@H](C1=CC=C(C=C1)C(=O)NC2=C3C=CNC3=NC=C2)N
Procedure, shortened: as §1

[5] = compound: C[C@H](Nc1ncnc2nc[nH]c12)c1cc2cccc(Cl)c2c(=O)n1-c1ccccc1 [duvelisib]
Procedure, shortened: as §1

[6] = compound: Cc1cc(Nc2cc(CN3CCOCC3)c3nc(C)c(Cc4ccc(Cl)cc4F)n3n2)n[nH]1 [gandotinib]
Procedure, shortened: as §1

[7] = compound: Cc1cc(Nc2cc(N3CCN(C)CC3)nc(Sc3ccc(NC(=O)C4CC4)cc3)n2)n[nH]1 [tozasertib]
Procedure, shortened: as §1

[8] = compound: Cc1cc(SCc2sc(-c3ccc(C(F)(F)F)cc3)nc2C)ccc1OCC(=O)O
Procedure, shortened: as §1

[9] = compound: Cc1ccc(-n2nc(C(C)(C)C)cc2NC(=O)Nc2ccc(OCCN3CCOCC3)c3ccccc23)cc1 [doramapimod]
Procedure, shortened: as §1

[10] = compound: Cc1ccc(C(=O)N(CCCN)[C@@H](c2nc3cc(Cl)ccc3c(=O)n2Cc2ccccc2)C(C)C)cc1 [ispinesib]
Procedure, shortened: as §1

[11] = compound: Cc1ccc(NC(=O)c2ccc(CN3CC[C@H](N(C)C)C3)c(C(F)(F)F)c2)cc1Nc1nccc(-c2cncnc2)n1 [bafetinib]
Procedure, shortened: as §1

[12] = compound: Cc1cccc(CC(=O)N2CCc3c2ccc(-c2cn(C)c4ncnc(N)c24)c3F)n1
Procedure, shortened: as §1

[13] = compound: Cc1cn(-c2cc(NC(=O)c3ccc(C)c(Nc4nccc(-c5cccnc5)n4)c3)cc(C(F)(F)F)c2)cn1 [nilotinib]
Procedure, shortened: as §1

[14] = compound: Cc1nc(Nc2n[nH]c3c2CN(C(=O)N[C@H](CN(C)C)c2ccccc2)C3(C)C)c2sccc2n1
Procedure, shortened: as §1

[15] = compound: Cc1nc(Nc2ncc(C(=O)Nc3c(C)cccc3Cl)s2)cc(N2CCN(CCO)CC2)n1 [dasatinib]
Procedure, shortened: as §1

[16] = compound: Cc1ncc(-c2ccnc(Nc3ccc(S(C)(=O)=O)cc3)n2)n1C(C)C
Procedure, shortened: as §1

[17] = compound: Cn1cc(-c2ccc3c(c2)CCN3C(=O)Cc2cccc(C(F)(F)F)c2)c2c(N)ncnc21
Procedure, shortened: as §1

[18] = compound: Cn1cc(-c2ccc3nnc(C(F)(F)c4ccc5ncccc5c4)n3n2)cn1
Procedure, shortened: as §1

[19] = compound: Cn1cncc1[C@@](N)(c1ccc(Cl)cc1)c1ccc2c(c1)c(-c1cccc(Cl)c1)cc(=O)n2C [tipifarnib]
Procedure, shortened: as §1

[20] = compound: FC(F)(F)c1ccc(/C=C/c2nc(COc3ccc(CCCCn4ccnn4)cc3)co2)cc1 [mubritinib]
Procedure, shortened: as §1

Measured: log2 fold change

DDX19B (UniProt Q9UMR2)
inactive: [1] -0.025 | [2] -0.031 | [3] -0.008 | [4] -0.032 | [5] 0.021 | [6] -0.069 | [7] 0.001 | [8] 0.021 | [9] -0.007 | [10] -0.023 | [11] -0.052 | [12] 0.028 | [13] -0.055 | [14] -0.067 | [15] -0.124 | [16] 0.025 | [17] 0.055 | [18] 0.004 | [19] -0.077 | [20] -0.131

DNAJA2 (UniProt O60884)
inactive: [1] -0.005 | [2] 0.01 | [3] 0.036 | [4] -0.051 | [5] 0.024 | [6] -0.034 | [7] 0.021 | [8] -0.018 | [9] -0.017 | [10] 0.034 | [11] -0.061 | [12] 0.024 | [13] -0.084 | [14] -0.045 | [15] -0.053 | [16] -0.008 | [17] 0.02 | [18] 0.06 | [19] 0.061 | [20] 0.03

DES (UniProt P17661)
inactive: [1] 0.203 | [2] 0.229 | [3] -0.179 | [4] 0.06 | [5] 0.073 | [6] 0.226 | [7] -0.109 | [8] -0.054 | [9] 0.138 | [10] -0.065 | [11] -0.132 | [12] -0.078 | [13] 0.124 | [14] -0.014 | [15] 0.171 | [16] -0.032 | [17] 0.1 | [18] 0.016 | [19] -0.07 | [20] 0.025

DLG2 isoform 2 (UniProt Q15700)
inactive: [1] 0.003 | [2] -0.13 | [3] 0.012 | [4] -0.06 | [5] 0.054 | [6] 0.011 | [7] 0.074 | [8] -0.065 | [9] -0.055 | [10] -0.033 | [11] -0.125 | [12] 0.136 | [13] 0.034 | [14] -0.015 | [15] 0.001 | [16] -0.022 | [17] -0.017 | [18] -0.116 | [19] 0.009 | [20] -0.035

Reprinted at random: 2 records from the list
DDX19B (UniProt Q9UMR2)
inactive: [1] -0.025 | [2] -0.031 | [3] -0.008 | [4] -0.032 | [5] 0.021 | [6] -0.069 | [7] 0.001 | [8] 0.021 | [9] -0.007 | [10] -0.023 | [11] -0.052 | [12] 0.028 | [13] -0.055 | [14] -0.067 | [15] -0.124 | [16] 0.025 | [17] 0.055 | [18] 0.004 | [19] -0.077 | [20] -0.131

DNAJA2 (UniProt O60884)
inactive: [1] -0.005 | [2] 0.01 | [3] 0.036 | [4] -0.051 | [5] 0.024 | [6] -0.034 | [7] 0.021 | [8] -0.018 | [9] -0.017 | [10] 0.034 | [11] -0.061 | [12] 0.024 | [13] -0.084 | [14] -0.045 | [15] -0.053 | [16] -0.008 | [17] 0.02 | [18] 0.06 | [19] 0.061 | [20] 0.03

Additional results follow:

DHX57 (UniProt Q6P158)
inactive: [1] -0.027 | [2] -0.001 | [3] -0.209 | [4] 0.207 | [5] -0.071 | [6] 0.094 | [7] 0.072 | [8] 0.056 | [9] 0.155 | [10] -0.04 | [11] 0.105 | [12] 0.058 | [13] -0.039 | [14] -0.017 | [15] 0.021 | [16] 0.029 | [17] -0.164 | [18] -0.124 | [19] 0.037 | [20] -0.039

DHRS11 (UniProt Q6UWP2)
inactive: [1] 0.01 | [2] -0.112 | [3] 0.073 | [4] -0.079 | [5] 0.046 | [6] -0.066 | [7] -0.015 | [8] -0.014 | [9] 0.021 | [10] -0.025 | [11] -0.026 | [12] -0.005 | [13] 0.006 | [14] -0.024 | [15] -0.102 | [16] -0.012 | [17] 0.106 | [18] 0.012 | [19] -0.073 | [20] -0.047

DGAT1 (UniProt O75907)
inactive: [1] -0.035 | [2] 0.033 | [3] -0.038 | [4] -0.073 | [5] -0.007 | [6] 0.015 | [7] 0.08 | [8] -0.043 | [9] 0.006 | [10] 0.046 | [11] -0.004 | [12] -0.004 | [13] -0.038 | [14] 0.041 | [15] -0.042 | [16] -0.066 | [17] 0.051 | [18] -0.065 | [19] 0 | [20] 0.003

DIMT1 (UniProt Q9UNQ2)
inactive: [1] -0.073 | [2] -0.006 | [3] -0.352 | [4] 0.312 | [5] -0.143 | [6] 0.183 | [7] 0.021 | [8] -0.01 | [9] 0.181 | [10] -0.146 | [11] 0.193 | [12] -0.001 | [13] -0.031 | [14] 0.184 | [15] 0.067 | [16] 0.016 | [17] -0.192 | [18] -0.144 | [19] 0.076 | [20] -0.125

DCXR (UniProt Q7Z4W1)
inactive: [1] 0.016 | [2] 0.073 | [3] 0.033 | [4] -0.041 | [5] 0.05 | [6] -0.044 | [7] -0.002 | [8] -0.036 | [9] -0.017 | [10] 0.02 | [11] -0.026 | [12] -0.01 | [13] -0.031 | [14] 0.024 | [15] 0.032 | [16] -0.025 | [17] 0.011 | [18] 0.019 | [19] -0.007 | [20] 0.026

DENND4B (UniProt O75064)
inactive: [1] 0.045 | [2] -0.016 | [3] -0.074 | [4] 0.093 | [5] -0.031 | [6] -0.055 | [7] -0.068 | [8] 0.02 | [9] 0.088 | [10] -0.012 | [11] -0.228 | [12] 0.043 | [13] 0.028 | [14] -0.021 | [15] -0.074 | [16] -0.043 | [17] 0.007 | [18] 0.032 | [19] 0.05 | [20] -0.039

DIABLO (UniProt Q9NR28)
inactive: [1] -0.039 | [2] 0.057 | [3] 0.107 | [4] -0.077 | [5] 0.018 | [6] -0.113 | [7] -0.008 | [8] -0.02 | [9] -0.014 | [10] -0.023 | [11] -0.065 | [12] 0.093 | [13] -0.022 | [14] 0.027 | [15] 0.026 | [16] -0.025 | [17] 0.036 | [18] 0.113 | [19] 0.022 | [20] 0.058

DIP2B (UniProt Q9P265)
inactive: [1] -0.008 | [2] 0.036 | [3] -0.013 | [4] -0.069 | [5] 0.032 | [6] -0.022 | [7] 0.015 | [8] 0.012 | [9] -0.02 | [10] 0.061 | [11] -0.03 | [12] 0.031 | [13] -0.001 | [14] -0.008 | [15] -0.035 | [16] -0.015 | [17] 0.053 | [18] 0.015 | [19] -0.006 | [20] 0.043

DIS3L (UniProt Q8TF46)
inactive: [1] 0.227 | [2] -0.038 | [3] -0.073 | [4] 0.197 | [5] 0.21 | [7] -0.098 | [8] -0.11 | [9] 0.107 | [10] 0.003 | [13] 0.146 | [14] 0.09 | [15] -0.085 | [16] -0.071 | [17] -0.226 | [18] -0.312 | [19] 0.169 | [20] -0.37

DDX47 (UniProt Q9H0S4)
inactive: [1] 0.08 | [2] 0.038 | [3] -0.395 | [4] 0.475 | [5] -0.25 | [8] -0.002 | [9] 0.139 | [10] 0.063 | [11] 0.044 | [13] 0.243 | [14] 0.202 | [15] 0.207 | [16] 0.184 | [17] -0.119 | [18] -0.153 | [20] 0.097

DGCR8 (UniProt Q8WYQ5)
inactive: [1] -0.071 | [2] -0.153 | [3] -0.384 | [4] 0.237 | [5] -0.098 | [6] 0.167 | [7] 0.032 | [8] 0.069 | [9] 0.13 | [10] 0.001 | [11] 0.177 | [12] -0.042 | [13] -0.014 | [14] -0.031 | [15] 0.13 | [16] 0.041 | [17] -0.247 | [18] -0.055 | [19] 0.083 | [20] -0.134

— the supplement of paper PMC10849652
